Record: PubChem BioAssay AID493246 (Drosophila RNAi Screening Center, 2011)
The deposit covers about 21,000 reagents; below is a random part of those with a known target gene and a result. Of all reagents, 429 (2%) are marked active. 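Values are raw and not normalised between plates; calls rest on per-plate z-scores that were not deposited.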 A plus sign joins genes that one reagent is predicted to hit. The record does not give: the amount of reagent, the time to read-out.

Test: 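Identify essential fly genes by loss of cell viability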 (primary screen)
Cells: Drosophila Kc and S2R+ cells
Reagent: long dsRNA against Drosophila genes
Measurement: 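Cell number per well after knock-down, printed as raw plate values; calls were based on per-plate z-scores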
Direction: Kc cell number and S2R+ cell number: higher = more cells remaining
Rule for the call: 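Counted as a hit if cell number falls by a z-score of at least 3 within its plate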

no.	target	dsRNA	Kc cell number, rep 1	Kc cell number, rep 2	S2R+ cell number, rep 1	S2R+ cell number, rep 2	activity call
1	Adgf-A2	DRSC09507	1.34e6	1.49e6	1.11e6	1.24e6	inactive
2	Cad86C	DRSC15587	1.45e6	1.63e6	1.28e6	1.41e6	inactive
3	Cad86C	DRSC15611	1.69e6	1.67e6	1.26e6	1.35e6	inactive
4	Lapsyn	DRSC04249	1.45e6	1.54e6	1.20e6	1.32e6	inactive
5	CG15546	DRSC15084	1.61e6	1.66e6	1.03e6	1.18e6	inactive
6	CG15221	DRSC19659	1.60e6	1.51e6	1.02e6	1.15e6	inactive
7	Tsen2	DRSC01557	1.43e6	1.49e6	9.03e5	1.14e6	inactive
8	exd	DRSC20330	1.57e6	1.58e6	1.10e6	1.22e6	inactive
9	Or85e (retired record)	DRSC16768	1.46e6	1.67e6	1.33e6	1.55e6	inactive
10	CG42502 + CG10570	DRSC02071	1.54e6	1.61e6	1.26e6	1.19e6	inactive
11	CG14983	DRSC08441	1.36e6	1.33e6	9.96e5	1.15e6	inactive
12	Spn47C	DRSC07030	1.19e6	1.29e6	1.01e6	1.01e6	inactive
13	Sems	DRSC11626	1.44e6	1.88e6	1.29e6	1.33e6	inactive
14	CCKLR-17D3	DRSC20015	1.74e6	1.77e6	1.01e6	1.19e6	inactive
15	CCKLR-17D3	DRSC20017	1.51e6	1.51e6	1.00e6	1.12e6	inactive
16	Sec61alpha	DRSC03256	1.30e6	1.60e6	2.82e5	1.23e5	inactive
17	Arp3	DRSC09669	1.26e6	1.34e6	1.32e6	1.25e6	inactive
18	wwk	DRSC01941	1.72e6	1.93e6	1.24e6	1.35e6	inactive
19	CG8860	DRSC07291	1.55e6	1.59e6	1.21e6	1.35e6	inactive
20	fd96Ca	DRSC16946	1.49e6	1.38e6	9.10e5	1.02e6	inactive
21	CG7550	DRSC10875	1.39e6	1.26e6	1.32e6	1.30e6	inactive
22	PAPLA1	DRSC03095	1.34e6	1.37e6	5.66e5	9.23e5	inactive
23	PAPLA1	DRSC03096	1.49e6	1.57e6	1.11e6	1.22e6	inactive
24	CG17283	DRSC15219	1.32e6	1.45e6	1.21e6	1.37e6	inactive
25	NimC2	DRSC01881	1.55e6	1.60e6	1.23e6	1.34e6	inactive
26	Jra	DRSC07447	1.88e6	1.91e6	1.24e6	1.28e6	inactive
27	galectin	DRSC00305	1.83e6	1.87e6	1.15e6	1.24e6	inactive
28	CG14507	DRSC14859	1.52e6	1.48e6	1.01e6	1.12e6	inactive
29	Dyrk2	DRSC03610	1.24e6	1.33e6	1.22e6	1.23e6	inactive
30	vlc	DRSC04922	1.50e6	1.54e6	1.25e6	1.32e6	inactive
31	tara	DRSC17076	1.25e6	1.21e6	1.17e6	1.28e6	inactive
32	Top3alpha	DRSC03460	1.58e6	1.65e6	1.34e6	4.16e5	inactive
33	alpha4GT2	DRSC15905	1.72e6	1.63e6	1.04e6	1.18e6	inactive
34	Ugt37A3	DRSC15937	1.93e6	1.94e6	1.36e6	1.35e6	inactive
35	vn	DRSC11408	1.57e6	1.44e6	1.02e6	1.02e6	inactive
36	ChT	DRSC16296	1.53e6	1.61e6	1.03e6	1.11e6	inactive
37	Ilp4	DRSC10701	1.24e6	1.28e6	1.25e6	1.27e6	inactive
38	CG15247	DRSC17976	1.55e6	1.59e6	1.11e6	1.23e6	inactive
39	CG14062	DRSC14725	1.55e6	1.56e6	1.03e6	1.14e6	inactive
40	dao	DRSC01960	1.53e6	1.61e6	1.19e6	1.33e6	inactive
41	sowah	DRSC09186	1.53e6	1.51e6	1.25e6	1.42e6	inactive
42	sowah	DRSC09758	1.34e6	1.42e6	1.25e6	1.17e6	inactive
43	CG13049	DRSC09930	1.38e6	1.40e6	1.31e6	1.36e6	inactive
44	Atat	DRSC10392	1.29e6	1.40e6	1.20e6	1.07e6	inactive
45	Rh3	DRSC16822	1.64e6	1.73e6	1.20e6	1.28e6	inactive
46	CG9917	DRSC20218	5.99e5		9.33e5		inactive
47	CG10147	DRSC09706	1.50e6	1.54e6	1.18e6	1.19e6	inactive
48	CG31388	DRSC15254	1.49e6	1.54e6	1.19e6	1.25e6	inactive
49	ssx	DRSC18492	5.76e5		6.21e5		inactive
50	nau	DRSC17011	1.68e6	1.59e6	9.80e5	1.06e6	inactive
51	CG16825	DRSC02526	1.60e6	1.66e6	1.30e6	1.44e6	inactive
52	NO66	DRSC18252	5.80e5		8.51e5		inactive
53	CG7465	DRSC08592	1.53e6	1.40e6	1.12e6	1.25e6	inactive
54	CSN7	DRSC06807	1.24e6	1.31e6	6.67e5	8.07e5	inactive
55	CSN7	DRSC06808	1.81e6	1.76e6	8.99e5	1.06e6	inactive
56	CG12605	DRSC08286	1.43e6	1.29e6	9.51e5	1.19e6	inactive
57	CG18823	DRSC18168	1.65e6	1.65e6	1.08e6	1.19e6	inactive
58	p130CAS	DRSC07862	1.58e6	1.54e6	1.03e6	1.21e6	inactive
59	p130CAS	DRSC08257	1.43e6	1.46e6	1.22e6	1.19e6	inactive
60	Phax	DRSC07066	1.56e6	1.67e6	1.24e6	1.33e6	inactive
61	Ca-alpha1D	DRSC03284	1.35e6	1.38e6	1.35e6	1.37e6	inactive
62	CG15152	DRSC02453	1.61e6	1.61e6	1.26e6	1.40e6	inactive
63	Ldh	DRSC11198	1.36e6	1.32e6	1.24e6	1.26e6	inactive
64	CG2924	DRSC18525	5.12e5		9.09e5		inactive
65	CG14990	DRSC08449	1.51e6	1.36e6	1.01e6	1.17e6	inactive
66	Su(dx)	DRSC00791	1.34e6	1.36e6	8.89e5	8.77e5	inactive
67	Cht11	DRSC18270	1.41e6	1.47e6	9.89e5	1.15e6	inactive
68	CG34260 + cmpy	DRSC11701	1.29e6	1.25e6	1.27e6	1.36e6	inactive
69	CG9294	DRSC04537	1.47e6	1.55e6	1.31e6	3.44e5	inactive
70	Npc2c	DRSC15523	1.59e6	1.57e6	1.21e6	1.28e6	inactive
71	CG18265	DRSC10310	1.39e6	1.44e6	1.23e6	1.27e6	inactive
72	CG34348	DRSC19425	1.59e6	1.50e6	1.08e6	1.22e6	inactive
73	CG34348	DRSC19644	1.59e6	1.47e6	1.19e6	1.28e6	inactive
74	CG16898	DRSC06635	1.49e6	1.55e6	1.14e6	1.32e6	inactive
75	lab	DRSC12627	1.37e6	1.42e6	1.12e6	1.23e6	inactive
